Test results as given in PubChem BioAssay AID493014 (National Center for Advancing Translational Sciences (NCATS), 2011).
In all, about 340,000 compounds went through this assay and about 170 (0.05%) were called active. Inconclusive results, whose numbers are uncertain, are shown with a selection of clear calls. Calls come from the whole dose curve; as a rule, active = well fitted inhibition curve with a large enough effect in the signal ratio, with a control signal flat (not every such curve was filed as active); inconclusive = small, poorly fitted or top-dose-only effect, or effect the other way, or a change in a side signal; inactive = flat fitted curve, though single readings scatter; the % refers to the signal ratio. A potency beside an inconclusive call is a rough fit, not a confirmed value.

Assay: qHTS Assay to Find Inhibitors of Chronic Active B-Cell Receptor Signaling;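 for activity change, negative = inhibition: plate controls were basal doxycycline-induced cells for no effect and cells given 10 µM MG132 for full effect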
Settings: ABC-DLBCL IkBa-CBG/CBR reporter, luminescence ratio (green luciferase fused to IkBa over red control in TMD8 lymphoma cells), 4 h; activity change, negative = inhibition: at 46.1 µM (top of the series)
Method in brief: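 Concentration-response series (up to 46 uM) were applied to TMD8 dual-reporter cells for 4 h at 37C with doxycycline. Green/red ratio, after filter-overlap correction, defined %Activity; red signal alone was normalised to basal cells and zero luminescence.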
Potency is the fitted concentration of half-maximal effect.

| SMILES | activity change, negative = inhibition | Potency |
| --- | --- | --- |
| COc1ccccc1CNC(=O)COC(=O)C1=COCCO1 | inactive: 1.8% |  |
| O=C(CSc1nnnn1Cc1ccccc1)NCC(=O)c1ccccc1 | inconclusive: 8.68% |  |
| O=c1[nH]c(NCCO)nc2c1C1(CCCC1)Cc1ccccc1-2 | inconclusive: 5.68% |  |
| Clc1ccc(SCc2cn3ccccc3n2)cc1 |  | inconclusive: 25.1 µM [falling, single point] |
| CCN1/C(=C/c2ccc3ccccc3[n+]2CC)C=Cc2ccccc21 |  | inconclusive: 9.2 µM [rising, partial curve] |
| Cc1nn(C)c(C)c1/C=N/NC(=O)c1csc2ccccc12 |  | inconclusive: 29.1 µM [falling, single point] |
| CC(C)NC(=O)c1onc(CSc2ccc(Cl)cc2)c1C(=O)O |  | inconclusive: 14.1 µM [rising, partial curve, poor fit] |
| CC(C)Cn1c2c(c(=O)[nH]c1=O)C(C(F)(F)F)(C(F)(F)F)N=C(CCC1CCCCC1)N2 | inconclusive: -0.668% |  |
| O=C(Cc1ccccc1)N1CCN(c2ccc([N+](=O)[O-])cc2)CC1 | inactive: 4.36% |  |
| Cc1cc(=O)[nH]c(SCC(=O)Nc2c(C)n(C)n(-c3ccccc3)c2=O)n1 | inactive: -0.918% |  |
| CCOc1cc(C2C3=C(CCCC3=O)N(CC(=O)O)C3=C2C(=O)CCC3)ccc1OC | inactive: 2.62% |  |
| COc1ccc(N(CC(=O)NCc2ccco2)S(=O)(=O)c2ccccc2)cc1 | inconclusive: -11% |  |
| CCN(CC)C(=O)Cn1cc(/C=C(\C#N)C(=O)N2CCN(c3ccccc3)CC2)c2ccccc21 |  | inconclusive: 35.5 µM [rising, partial curve, poor fit] |
| O=C(CNc1cccc(C(F)(F)F)c1)N/N=C/c1cccc(Br)c1 | inconclusive: 7.31% |  |
| O=C(O)c1nn(CCOc2cccc(Br)c2)c(=O)c2ccccc12 |  | inconclusive: 35.5 µM [falling, partial curve, poor fit] |
| Cc1ccc(Cl)cc1NC1=NC(=S)N(C(C)C)C12CCCCC2 | inactive: 1.05% |  |
| Cc1ccc(OCC(=O)N(C)CC(=O)Nc2ccc(Cl)c(C(F)(F)F)c2)c([N+](=O)[O-])n1 | inactive: 0.639% |  |
| CCCSc1nnc(NC(=O)Nc2ccc(C)cc2)s1 | inconclusive: 13.1% |  |
| NNC(=O)c1cnn(-c2ccccc2)c1C(F)(F)F |  | inconclusive: 35.5 µM [falling, single point] |
| CN(C)/C=C/C(=O)c1cccc(Oc2ncccn2)c1 | inconclusive: -3.05% |  |
| COc1ccc(C2C(=O)N(C3CCCCCC3)CC(=O)N2CCC2=CCCCC2)cc1 (stereo not drawn) | inactive: -0.894% |  |

2 of the compounds above, bar-delimited:
SMILES | activity change, negative = inhibition | Potency
CCN1/C(=C/c2ccc3ccccc3[n+]2CC)C=Cc2ccccc21 |  | inconclusive: 9.2 µM [rising, partial curve]
Cc1nn(C)c(C)c1/C=N/NC(=O)c1csc2ccccc12 |  | inconclusive: 29.1 µM [falling, single point]

The listing continues:

| SMILES | activity change, negative = inhibition | Potency |
| --- | --- | --- |
| Cc1ccc(C(=O)Nc2ccc3cn[nH]c3c2)cc1S(=O)(=O)N1CCCCC1 | inconclusive: -6.13% |  |
| CCCSc1nnc(C(C)C)n1N | inconclusive: 9.44% |  |
| NC(=O)CSc1nnc(Cc2csc(Nc3ccccc3)n2)n1Cc1ccccc1 | inconclusive: -14.2% |  |
| COC(=O)c1cc(=O)n(Cc2ccco2)c(=Nc2ccc(F)cc2)s1 | inconclusive: 17.1% |  |
| O=C(NC1=NCCS1)c1cccc(OC(F)F)c1 | inactive: -0.336% |  |
| CC(C)C(NC(=O)Nc1ccccc1)C(=O)Nc1cccc(S(=O)(=O)N(C)C)c1 (stereo not drawn) | inconclusive: 21.5% |  |
| O=C(NCc1nnc(SCC(=O)N2CCC(Cc3ccccc3)CC2)o1)c1ccco1 | inconclusive: -3.01% |  |
| CSC1=NCCN1C(=O)COc1ccc2ccccc2c1 |  | inconclusive: 23.1 µM [rising, partial curve, poor fit] |
| CCOc1ccc2oc(C(=O)NNC(=O)c3csc(N4CCOCC4)n3)c(C)c2c1 | inactive: -2.17% |  |
| c1ccc(CSc2ccc(-c3ccc4c(c3)OCO4)nn2)cc1 | inconclusive: 6.48% |  |
| CCC(CO)Oc1cc(NCc2cccc(Cl)c2)c2ncn(C(C)C)c2c1 (stereo not drawn) | inconclusive: -1.63% |  |
| CC(=O)NCCN1C(=O)C2C3c4ccccc4C(c4ccccc43)C2C1=O (stereo not drawn) | inactive: 19.9% |  |
| CCc1cc(SC#N)ccc1N | inactive: -15% |  |
| O=C(CCn1c(=O)sc2ccccc21)Nc1nc2ccccc2s1 | inconclusive: 9.08% |  |
| O=C(Nc1cc(Cl)cc(Cl)c1)c1ccc(F)c(S(=O)(=O)NC2CCCCC2)c1 | inconclusive: 10.9% |  |
| CC1CCCC(NC(=O)c2nn(C)c3c2CS(=O)(=O)c2ccccc2-3)C1C (stereo not drawn) | inactive: 0.553% |  |
| COc1ccc(CCNC(=O)CCSCc2ccccc2Cl)cc1OC | inconclusive: 3.9% |  |
| COc1cccc(-c2cc(C(=O)Nc3ccn(Cc4ccc(C)cc4)n3)no2)c1 |  | inconclusive: 3.16 µM [falling, partial curve, poor fit] |
| Cc1cc(-c2ccccc2)nc(Cl)c1C#N | inactive: -0.716% |  |
| O=C(C1CCCCC1)N1CCC(c2nc3ccccc3[nH]2)CC1 | inconclusive: -1.12% |  |
| Nc1ccccc1Sc1ccccc1[N+](=O)[O-] | inconclusive: -0.66% |  |

Molecules shown so far with bromine (2):

| SMILES | activity change, negative = inhibition | Potency |
| --- | --- | --- |
| O=C(CNc1cccc(C(F)(F)F)c1)N/N=C/c1cccc(Br)c1 | inconclusive: 7.31% |  |
| O=C(O)c1nn(CCOc2cccc(Br)c2)c(=O)c2ccccc12 |  | inconclusive: 35.5 µM [falling, partial curve, poor fit] |

Further results.

| SMILES | activity change, negative = inhibition | Potency |
| --- | --- | --- |
| O=C(NNC1=NS(=O)(=O)c2ccccc21)c1ccccc1 | inconclusive: 186% |  |
| O=C(/C=C/c1ccc(F)cc1)NC(=S)Nc1ccccc1O |  | inconclusive: 35.5 µM [falling, single point] |
| O=[N+]([O-])c1cccc(C(=S)N2CCN(c3ccc(F)cc3)CC2)c1 | inconclusive: 10.6% |  |
| CCN1CCN(C(=O)c2ccc3c(=O)n(Cc4ccccc4OC)c(=S)[nH]c3c2)CC1 | inactive: 4.51% |  |
| O=C(NCc1cccnc1)c1nn2cccnc2c1Cl |  | inconclusive: 0.708 µM [rising, full curve, poor fit] |
| COc1ccc(C)cc1S(=O)(=O)N(CC(=O)N1CCOCC1)Cc1ccccc1 | inconclusive: 5.75% |  |
| COc1ccc(C(C)(C)NC(=O)C2CCC(=O)N(CCCN3CCCC3=O)C2)cc1 (stereo not drawn) | inactive: 1.49% |  |
| C=CCNC(=S)Nc1ccc(OC(F)F)c(Cl)c1 | inconclusive: -0.205% |  |
| COc1cccc(CNc2ncnc3ccc(-c4c(C)noc4C)cc23)c1 | inconclusive: -5.12% |  |
| COc1ccccc1NS(=O)(=O)c1cc(NC(=O)c2cnccn2)ccc1N1CCOCC1 | inconclusive: 1.64% |  |
| Cc1ccc(Cl)cc1NC(=O)CC1NCCNC1=O (stereo not drawn) | inconclusive: 10% |  |
| Cc1nc(C)c(-c2ccc(SCc3ccc(Cl)cc3)nn2)s1 | inconclusive: 11.1% |  |
| O=c1c2cn[nH]c2[nH]c(=S)n1-c1ccccc1F | inconclusive: 0.264% |  |
| CC(Oc1ccc(Cl)cc1C(N)=O)C(=O)N1CCc2ccccc21 (stereo not drawn) |  | inconclusive: 18.4 µM [falling, partial curve, poor fit] |
| COc1ccc(NC(=O)ON=C2c3ccccc3-c3ccccc32)cc1 |  | inconclusive: 15.8 µM [falling, single point] |
| Cc1ccc(CS(=O)(=O)c2ncc(Cl)c(C(=O)Nc3nnc(C)s3)n2)cc1 | inconclusive: 19.6% |  |
| O=C(CSC1=NS(=O)(=O)c2cc(Cl)ccc2N1)c1ccc(Cl)cc1 |  | inconclusive: 2.31 µM [falling, partial curve, poor fit] |
| O=C(CSc1nn(-c2ccc(Cl)cc2)c(=S)s1)N1CCN(C(=O)c2ccco2)CC1 | inconclusive: 1.66% |  |
| COc1ccc(-c2nc(C(=O)NCCCN3CCOCC3)cc3c2[nH]c2ccccc23)cc1OC |  | inconclusive: 3.55 µM [rising, full curve] |
| CCNC(=O)NC(=O)COC(=O)c1ccccc1SCC(=O)NC(=O)NCC |  | inconclusive: 2 µM [falling, partial curve, poor fit] |
| CC(C)CCC(CCNCc1ccccn1)c1ccc2c(c1)OCO2 (stereo not drawn) | inactive: 0.304% |  |

| SMILES | activity change, negative = inhibition | Potency |
| --- | --- | --- |
| COc1ccc(OC)c(NC2=C(Cl)C(=O)N(Cc3ccccc3)C2=O)c1 | inconclusive: 1.77% |  |
| O=C1CCc2cc(S(=O)(=O)N3CCN(c4ccccc4F)CC3)ccc2N1 |  | inconclusive: 6.51 µM [falling, single point] |
| NS(=O)(=O)c1ccc(CNC(=O)C2CCCN2C(=O)c2cccs2)cc1 (stereo not drawn) | inactive: 2.4% |  |
| CNC(=S)Nc1cccc(S(=O)(=O)NC2=NCCC2)c1 | inconclusive: -21.2% |  |
| c1ccc(-c2nnc(CN3CCN(c4ccccc4)CC3)o2)cc1 | inconclusive: 1.07% |  |
| O=C(Nc1nccs1)c1ncc(Cl)c(Cl)c1Cl | inconclusive: 6.3% |  |
| CC1(C)CC2CC(C)(CN2S(=O)(=O)c2ccc(C(=O)Nc3cccc(S(=O)(=O)N4CCOCC4)c3)cc2)C1 (stereo not drawn) | inactive: 3.57% |  |
| C[C@@H](NC(=O)c1nc[nH]c1C(=O)N1CCN(c2ccccc2)CC1)c1ccccc1 | inconclusive: 1.24% |  |
| COc1ccc(-c2noc(=O)n2Cc2ccccc2Cl)cc1 | inactive: 1.3% |  |
| Cn1c(Oc2ccccc2NCc2cc(Br)ccc2O)cc(=O)n(C)c1=O | inconclusive: 21.2% |  |
| COc1cc(C(=O)NNC(=O)/C=C/c2ccccc2)cc(OC)c1OC | inconclusive: -7.82% |  |
| O=C(OCC(=O)N1CCCC1)c1ccc(OC(F)(F)F)cc1 | inconclusive: 7.49% |  |
| COC(=O)CCCC(=O)N1CCCC(CCC(=O)NCc2ccc(F)c(F)c2)C1 (stereo not drawn) |  | inconclusive: 12.6 µM [falling, partial curve] |
| CC(=O)Nc1ccc(S(=O)(=O)N(C)c2ccc(OCC(=O)OCC(=O)N3CCCCC3)cc2)cc1 | inconclusive: 6.06% |  |
| CCOC(=O)c1cc2sc(C)cc2n1CC(=O)N(CC)CC | inconclusive: 13.1% |  |
| Cc1c(OC(C)C(=O)NCCCN2CCOCC2)ccc2c3c(c(=O)oc12)CCC3 (stereo not drawn) | inconclusive: 1.11% |  |
| COc1ccc(NC(=O)CN(C)S(=O)(=O)c2cnc[nH]2)cc1Cl | inactive: -19.2% |  |
| C=CCn1c(SCc2cc(=O)n3cc(C)ccc3n2)nnc1-c1ccc(F)cc1 | inconclusive: 0.944% |  |
| COCCOC(=O)C1=C(C)NC2=C(C(=O)CC(c3cccs3)C2)C1c1ccsc1 (stereo not drawn) | inconclusive: 0.0668% |  |
| Cc1ccc(-c2[nH]c(-c3ccccc3)nc2SCC(=O)NCC2CCCO2)cc1 (stereo not drawn) | inactive: -1.48% |  |
